Laboratory results from PMC10288633.
Results are given in words; binding and its absence hold for the method and conditions named. In cells and extracts the contact can be indirect. These calls come from enrichment with a bait or labelling near it, and not all partners need be listed.

By UniProt entry, the sequences of proteins in these tests, tags left out.
UniProt Q9UBB5: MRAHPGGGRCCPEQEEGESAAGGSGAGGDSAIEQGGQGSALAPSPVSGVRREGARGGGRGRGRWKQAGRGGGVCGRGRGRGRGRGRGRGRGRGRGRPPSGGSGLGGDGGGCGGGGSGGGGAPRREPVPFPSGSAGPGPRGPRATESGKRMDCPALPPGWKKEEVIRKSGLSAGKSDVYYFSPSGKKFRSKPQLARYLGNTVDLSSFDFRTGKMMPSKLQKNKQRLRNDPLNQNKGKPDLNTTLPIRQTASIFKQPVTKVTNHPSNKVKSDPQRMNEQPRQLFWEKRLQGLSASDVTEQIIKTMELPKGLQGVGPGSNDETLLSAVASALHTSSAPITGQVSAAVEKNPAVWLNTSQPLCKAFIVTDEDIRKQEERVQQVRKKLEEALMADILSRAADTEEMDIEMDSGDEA
UniProt Q9BQA1: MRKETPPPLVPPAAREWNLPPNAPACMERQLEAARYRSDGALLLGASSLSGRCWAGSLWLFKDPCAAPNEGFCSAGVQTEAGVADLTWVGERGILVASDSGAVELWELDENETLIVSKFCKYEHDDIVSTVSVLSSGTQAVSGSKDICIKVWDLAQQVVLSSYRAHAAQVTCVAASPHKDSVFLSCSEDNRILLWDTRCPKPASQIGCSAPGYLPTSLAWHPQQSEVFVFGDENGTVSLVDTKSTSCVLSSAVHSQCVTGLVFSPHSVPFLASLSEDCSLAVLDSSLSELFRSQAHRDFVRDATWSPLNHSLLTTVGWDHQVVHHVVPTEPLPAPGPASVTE
UniProt O14744: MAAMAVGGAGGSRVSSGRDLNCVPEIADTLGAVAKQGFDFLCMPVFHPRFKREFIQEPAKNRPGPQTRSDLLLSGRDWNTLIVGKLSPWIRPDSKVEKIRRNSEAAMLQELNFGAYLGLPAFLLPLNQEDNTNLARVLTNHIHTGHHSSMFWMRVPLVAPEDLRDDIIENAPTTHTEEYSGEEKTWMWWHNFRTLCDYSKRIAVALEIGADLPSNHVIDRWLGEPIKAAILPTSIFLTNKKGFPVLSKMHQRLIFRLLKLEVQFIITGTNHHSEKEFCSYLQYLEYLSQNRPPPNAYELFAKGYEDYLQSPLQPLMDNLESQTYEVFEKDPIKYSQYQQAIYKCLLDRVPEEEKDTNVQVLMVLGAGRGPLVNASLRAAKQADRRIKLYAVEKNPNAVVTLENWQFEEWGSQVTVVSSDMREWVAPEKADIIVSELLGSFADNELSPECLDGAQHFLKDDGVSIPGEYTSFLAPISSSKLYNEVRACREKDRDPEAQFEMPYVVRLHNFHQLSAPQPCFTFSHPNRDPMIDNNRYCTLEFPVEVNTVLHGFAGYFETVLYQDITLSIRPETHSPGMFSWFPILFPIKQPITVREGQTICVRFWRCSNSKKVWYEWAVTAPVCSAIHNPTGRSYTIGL

Tests used:
MBD2a-TAPtag [1] = target: MBD2a-TAPtag (UniProt Q9UBB5); experiment: affinity purification with mass spectrometry; as a1, but with the corresponding whole-cell extract
MBD2a-TAPtag [2] = target: MBD2a-TAPtag (UniProt Q9UBB5); experiment: affinity purification with mass spectrometry; TAP-tagged MBD2a or MBD2b as bait, expressed in MBD2KO HUDEP-2 cells; nuclear extract; affinity purification, gel bands, LC-MS; empty vector as control

Row | binding (MBD2a-TAPtag [1]) | binding (MBD2a-TAPtag [2]) | Substance
1 | binds | binds | MEP50 (from UniProt Q9BQA1 1-342)
2 | binds | binds | PRMT5 (from UniProt O14744 1-637) (enzyme)
